Some of the results follow. Hit calls seldom repeat between salt and free forms of one compound.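 Kinases were expressed as nanoluciferase fusions in K562 cells and luminescence was read every 4 h between 2 and 18 h as percent of control, DMSO set to 100% and a positive control to 0%. A time point counts as decreased when the signal drops significantly (2 sigma). The hit call is the authors' own, does not follow from the count of time points alone, and its rule is not shown.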
Key:
Settings in all cases: K562; 2-18 h
[1] = target: RET (UniProt P07949); experiment: kinase-Nluc reporter destabilization hit call (1 = scored as downregulated) (binary); higher = compound decreases kinase abundance
[2] = target: RET_M918T (clone: RET_mut) (UniProt P07949); experiment: as above
[3] = target: RIOK1 (UniProt Q9BRS2); experiment: as above
[4] = target: RIPK1 (UniProt Q13546); experiment: as above
[5] = target: RIPK2 (UniProt O43353); experiment: as above
[6] = target: ROR2 (UniProt Q01974); experiment: as above
[7] = target: RPS6KA1 (UniProt Q15418); experiment: as above
[8] = target: SPHK1 (UniProt Q9NYA1); experiment: as above
[9] = target: SRC (UniProt P12931); experiment: as above
[10] = target: STK24 (UniProt Q9Y6E0); experiment: as above
[11] = target: STK38 (UniProt Q15208); experiment: as above
[12] = target: SYK (UniProt P43405); experiment: as above
[13] = target: TEC (UniProt P42680); experiment: as above
[14] = target: TYK2 (UniProt P29597); experiment: as above
[15] = target: ULK3 (UniProt Q6PHR2); experiment: as above
[16] = target: YES1 (UniProt P07947); experiment: as above
[17] = target: ZAK (UniProt Q9NYL2); experiment: as above
[18] = target: ZAP70 (UniProt P43403); experiment: as above
[19] = target: ABL1 (UniProt P00519); experiment: number of time points (of 5) at which kinase-Nluc abundance scored as decreased, DMSO-normalised (count); higher = more persistent destabilization
[20] = target: AKT1 (UniProt P31749); experiment: as above

Protein sequences, listed by entry. Tags and fused reporters are not part of them. Lines headed by an entry give the natural chain unless they say otherwise; changes in a name come on top.
UniProt P07949, whole entry, looked up: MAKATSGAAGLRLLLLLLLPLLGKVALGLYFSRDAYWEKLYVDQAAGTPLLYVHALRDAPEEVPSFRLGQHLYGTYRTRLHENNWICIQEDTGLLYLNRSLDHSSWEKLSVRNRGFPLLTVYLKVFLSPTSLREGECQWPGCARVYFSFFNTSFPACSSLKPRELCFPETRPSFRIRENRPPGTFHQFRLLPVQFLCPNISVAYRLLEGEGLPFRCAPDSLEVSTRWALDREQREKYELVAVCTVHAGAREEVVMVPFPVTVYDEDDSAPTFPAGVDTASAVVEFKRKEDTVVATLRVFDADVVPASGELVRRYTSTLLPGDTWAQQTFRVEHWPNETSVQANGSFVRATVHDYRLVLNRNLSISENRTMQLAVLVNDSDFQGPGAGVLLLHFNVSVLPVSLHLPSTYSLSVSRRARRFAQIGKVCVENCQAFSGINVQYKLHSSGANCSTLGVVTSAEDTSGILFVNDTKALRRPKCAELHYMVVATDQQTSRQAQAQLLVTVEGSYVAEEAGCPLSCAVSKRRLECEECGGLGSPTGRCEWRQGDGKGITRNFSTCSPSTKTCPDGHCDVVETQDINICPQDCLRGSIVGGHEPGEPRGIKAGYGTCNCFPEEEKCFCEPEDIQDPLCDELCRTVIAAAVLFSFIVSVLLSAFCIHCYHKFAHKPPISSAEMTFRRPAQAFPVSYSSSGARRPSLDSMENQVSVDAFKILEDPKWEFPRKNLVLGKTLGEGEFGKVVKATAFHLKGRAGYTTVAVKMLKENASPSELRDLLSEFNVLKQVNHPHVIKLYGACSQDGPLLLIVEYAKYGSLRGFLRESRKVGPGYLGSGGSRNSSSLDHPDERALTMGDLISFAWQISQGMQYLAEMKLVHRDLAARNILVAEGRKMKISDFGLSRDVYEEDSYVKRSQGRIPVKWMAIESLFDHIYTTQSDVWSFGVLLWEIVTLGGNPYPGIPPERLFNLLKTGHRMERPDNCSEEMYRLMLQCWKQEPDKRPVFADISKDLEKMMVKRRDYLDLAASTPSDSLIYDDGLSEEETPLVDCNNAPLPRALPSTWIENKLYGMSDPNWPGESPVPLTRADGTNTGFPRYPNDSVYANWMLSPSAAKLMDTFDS
UniProt P07949, whole entry M918T, looked up: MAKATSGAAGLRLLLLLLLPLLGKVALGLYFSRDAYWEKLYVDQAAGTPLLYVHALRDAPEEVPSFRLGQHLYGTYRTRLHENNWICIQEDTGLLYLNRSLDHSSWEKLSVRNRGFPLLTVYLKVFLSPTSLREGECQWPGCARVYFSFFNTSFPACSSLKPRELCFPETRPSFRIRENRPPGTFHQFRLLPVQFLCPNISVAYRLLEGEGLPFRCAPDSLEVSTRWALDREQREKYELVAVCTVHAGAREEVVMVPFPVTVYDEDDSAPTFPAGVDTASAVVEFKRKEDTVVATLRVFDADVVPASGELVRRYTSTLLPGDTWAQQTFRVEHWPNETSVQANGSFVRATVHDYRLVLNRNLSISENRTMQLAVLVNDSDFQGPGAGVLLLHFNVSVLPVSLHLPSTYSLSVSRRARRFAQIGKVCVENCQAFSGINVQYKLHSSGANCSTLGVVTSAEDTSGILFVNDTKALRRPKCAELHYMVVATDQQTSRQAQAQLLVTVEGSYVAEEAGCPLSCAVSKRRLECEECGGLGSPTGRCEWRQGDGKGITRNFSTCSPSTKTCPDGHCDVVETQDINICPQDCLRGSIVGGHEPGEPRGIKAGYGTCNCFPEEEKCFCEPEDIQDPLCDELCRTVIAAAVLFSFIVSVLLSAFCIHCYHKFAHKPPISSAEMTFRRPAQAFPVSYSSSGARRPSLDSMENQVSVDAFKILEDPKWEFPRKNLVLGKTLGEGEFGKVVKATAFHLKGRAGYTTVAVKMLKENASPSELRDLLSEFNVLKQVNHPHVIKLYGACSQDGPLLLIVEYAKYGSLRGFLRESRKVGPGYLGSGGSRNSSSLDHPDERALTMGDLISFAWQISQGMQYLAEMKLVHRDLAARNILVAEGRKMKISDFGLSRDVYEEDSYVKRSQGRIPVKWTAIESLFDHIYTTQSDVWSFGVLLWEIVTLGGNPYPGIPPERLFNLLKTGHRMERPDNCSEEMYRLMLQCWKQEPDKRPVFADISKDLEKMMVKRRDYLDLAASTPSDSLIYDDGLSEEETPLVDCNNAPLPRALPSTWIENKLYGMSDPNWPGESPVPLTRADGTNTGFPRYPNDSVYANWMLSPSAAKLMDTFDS
UniProt Q13546: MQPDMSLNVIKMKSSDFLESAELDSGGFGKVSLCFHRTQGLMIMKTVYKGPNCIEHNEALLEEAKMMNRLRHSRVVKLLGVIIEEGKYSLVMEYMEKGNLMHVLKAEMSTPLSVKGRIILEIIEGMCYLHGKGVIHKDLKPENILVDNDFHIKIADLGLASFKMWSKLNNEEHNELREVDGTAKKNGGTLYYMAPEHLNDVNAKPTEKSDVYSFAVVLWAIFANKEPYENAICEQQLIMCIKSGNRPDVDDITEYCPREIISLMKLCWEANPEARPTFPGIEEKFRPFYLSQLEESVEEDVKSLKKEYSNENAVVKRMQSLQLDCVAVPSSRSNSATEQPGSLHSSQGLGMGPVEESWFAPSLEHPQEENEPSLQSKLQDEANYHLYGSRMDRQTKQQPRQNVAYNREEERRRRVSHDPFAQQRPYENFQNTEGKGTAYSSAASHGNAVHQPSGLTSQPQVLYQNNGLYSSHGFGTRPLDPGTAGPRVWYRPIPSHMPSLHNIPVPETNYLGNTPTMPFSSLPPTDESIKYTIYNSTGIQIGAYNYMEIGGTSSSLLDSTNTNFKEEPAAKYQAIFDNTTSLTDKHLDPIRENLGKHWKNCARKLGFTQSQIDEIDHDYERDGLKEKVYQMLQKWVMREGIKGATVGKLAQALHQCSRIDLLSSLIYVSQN
UniProt Q01974, whole entry: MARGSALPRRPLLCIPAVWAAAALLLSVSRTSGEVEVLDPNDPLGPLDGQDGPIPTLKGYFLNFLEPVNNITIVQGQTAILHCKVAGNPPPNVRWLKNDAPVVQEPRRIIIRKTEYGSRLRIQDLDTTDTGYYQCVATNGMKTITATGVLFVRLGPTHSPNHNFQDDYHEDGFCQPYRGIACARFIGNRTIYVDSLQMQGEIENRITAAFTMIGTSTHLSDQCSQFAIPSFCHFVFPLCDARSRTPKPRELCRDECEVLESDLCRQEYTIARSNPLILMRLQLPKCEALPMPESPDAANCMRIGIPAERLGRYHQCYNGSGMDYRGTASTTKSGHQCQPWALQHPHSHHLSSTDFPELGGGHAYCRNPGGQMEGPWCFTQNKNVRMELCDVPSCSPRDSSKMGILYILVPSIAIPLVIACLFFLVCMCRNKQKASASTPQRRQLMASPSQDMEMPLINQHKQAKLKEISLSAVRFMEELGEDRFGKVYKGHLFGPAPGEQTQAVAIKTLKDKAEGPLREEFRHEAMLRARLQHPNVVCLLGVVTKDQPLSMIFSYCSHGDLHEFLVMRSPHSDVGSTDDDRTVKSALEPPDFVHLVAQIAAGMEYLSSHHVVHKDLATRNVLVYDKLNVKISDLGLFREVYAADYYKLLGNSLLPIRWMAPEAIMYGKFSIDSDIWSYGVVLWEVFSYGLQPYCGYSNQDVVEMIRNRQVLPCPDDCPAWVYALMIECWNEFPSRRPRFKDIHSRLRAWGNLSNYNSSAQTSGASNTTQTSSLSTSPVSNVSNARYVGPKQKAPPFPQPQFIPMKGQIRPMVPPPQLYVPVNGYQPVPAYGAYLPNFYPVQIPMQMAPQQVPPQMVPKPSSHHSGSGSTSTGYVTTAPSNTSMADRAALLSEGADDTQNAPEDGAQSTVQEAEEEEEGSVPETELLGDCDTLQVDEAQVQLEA
UniProt Q9Y6E0: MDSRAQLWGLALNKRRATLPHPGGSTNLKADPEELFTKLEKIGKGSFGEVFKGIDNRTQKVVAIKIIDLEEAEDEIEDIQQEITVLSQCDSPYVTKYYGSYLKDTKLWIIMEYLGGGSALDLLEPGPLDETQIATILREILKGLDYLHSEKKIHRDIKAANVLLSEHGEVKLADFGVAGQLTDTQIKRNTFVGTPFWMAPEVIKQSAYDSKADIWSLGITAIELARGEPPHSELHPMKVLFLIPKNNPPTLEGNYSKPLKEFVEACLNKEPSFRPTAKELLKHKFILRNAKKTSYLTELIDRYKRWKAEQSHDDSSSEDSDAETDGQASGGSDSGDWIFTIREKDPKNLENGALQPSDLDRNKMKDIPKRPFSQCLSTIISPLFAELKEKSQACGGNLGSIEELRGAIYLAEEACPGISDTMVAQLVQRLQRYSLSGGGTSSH
UniProt P07947, whole entry, looked up: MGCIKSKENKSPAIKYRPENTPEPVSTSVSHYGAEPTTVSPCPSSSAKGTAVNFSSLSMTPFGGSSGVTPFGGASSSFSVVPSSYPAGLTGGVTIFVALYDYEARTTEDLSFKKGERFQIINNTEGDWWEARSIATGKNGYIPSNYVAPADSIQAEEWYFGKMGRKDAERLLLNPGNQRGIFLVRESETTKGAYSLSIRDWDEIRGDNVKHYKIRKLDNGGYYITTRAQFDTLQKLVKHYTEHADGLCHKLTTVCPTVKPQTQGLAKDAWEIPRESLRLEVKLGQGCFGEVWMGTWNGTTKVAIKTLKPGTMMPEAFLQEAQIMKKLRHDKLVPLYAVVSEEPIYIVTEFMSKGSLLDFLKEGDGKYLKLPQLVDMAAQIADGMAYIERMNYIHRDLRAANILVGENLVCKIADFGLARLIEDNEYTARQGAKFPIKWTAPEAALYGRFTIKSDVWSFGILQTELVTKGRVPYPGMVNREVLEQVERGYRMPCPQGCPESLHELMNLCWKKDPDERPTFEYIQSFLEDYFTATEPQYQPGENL
UniProt P00519, whole entry: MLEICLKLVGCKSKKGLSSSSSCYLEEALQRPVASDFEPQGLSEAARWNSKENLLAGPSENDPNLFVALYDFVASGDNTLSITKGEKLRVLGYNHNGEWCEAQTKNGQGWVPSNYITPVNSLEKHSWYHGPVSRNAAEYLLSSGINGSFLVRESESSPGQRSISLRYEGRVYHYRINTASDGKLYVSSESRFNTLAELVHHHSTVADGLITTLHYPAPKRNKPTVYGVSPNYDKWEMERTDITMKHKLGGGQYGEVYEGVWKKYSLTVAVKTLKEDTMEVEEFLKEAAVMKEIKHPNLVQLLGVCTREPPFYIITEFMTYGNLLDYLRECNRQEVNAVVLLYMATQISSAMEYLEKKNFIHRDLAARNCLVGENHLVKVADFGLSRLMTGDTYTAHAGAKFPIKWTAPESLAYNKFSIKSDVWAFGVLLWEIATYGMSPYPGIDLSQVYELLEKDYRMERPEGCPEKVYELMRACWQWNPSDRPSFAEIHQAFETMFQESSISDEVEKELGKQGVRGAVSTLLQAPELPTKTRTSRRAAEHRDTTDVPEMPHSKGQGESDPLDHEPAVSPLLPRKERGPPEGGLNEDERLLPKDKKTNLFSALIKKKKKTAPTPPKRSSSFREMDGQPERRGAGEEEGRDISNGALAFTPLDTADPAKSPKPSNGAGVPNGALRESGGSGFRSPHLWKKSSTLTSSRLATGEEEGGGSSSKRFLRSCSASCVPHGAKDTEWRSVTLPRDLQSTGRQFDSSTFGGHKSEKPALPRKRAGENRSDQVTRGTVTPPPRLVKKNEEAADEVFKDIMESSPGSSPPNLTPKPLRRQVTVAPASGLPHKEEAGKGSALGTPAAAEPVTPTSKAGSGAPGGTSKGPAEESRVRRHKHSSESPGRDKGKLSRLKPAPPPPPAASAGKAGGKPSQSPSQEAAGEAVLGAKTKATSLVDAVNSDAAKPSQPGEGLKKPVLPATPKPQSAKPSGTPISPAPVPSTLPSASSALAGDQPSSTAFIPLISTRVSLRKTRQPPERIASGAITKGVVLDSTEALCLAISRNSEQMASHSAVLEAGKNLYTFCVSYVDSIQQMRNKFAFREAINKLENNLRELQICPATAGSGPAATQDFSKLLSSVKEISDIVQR
UniProt P31749: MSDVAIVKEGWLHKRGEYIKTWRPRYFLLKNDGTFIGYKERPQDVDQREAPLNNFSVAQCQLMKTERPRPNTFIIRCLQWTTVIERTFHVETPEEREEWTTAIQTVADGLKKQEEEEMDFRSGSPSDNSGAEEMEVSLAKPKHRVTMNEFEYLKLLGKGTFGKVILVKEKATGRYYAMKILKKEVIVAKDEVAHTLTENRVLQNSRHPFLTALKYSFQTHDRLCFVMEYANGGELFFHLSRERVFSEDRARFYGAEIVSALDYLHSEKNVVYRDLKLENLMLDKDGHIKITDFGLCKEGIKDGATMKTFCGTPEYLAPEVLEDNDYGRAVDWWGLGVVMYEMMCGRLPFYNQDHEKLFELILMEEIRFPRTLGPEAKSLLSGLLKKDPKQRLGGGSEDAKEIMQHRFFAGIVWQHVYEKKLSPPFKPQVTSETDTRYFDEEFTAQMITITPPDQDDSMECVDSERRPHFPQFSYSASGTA

SMILES	kinase-Nluc reporter destabilization hit call [1]	kinase-Nluc reporter destabilization hit call [2]	kinase-Nluc reporter destabilization hit call [3]	kinase-Nluc reporter destabilization hit call [4]	kinase-Nluc reporter destabilization hit call [5]	kinase-Nluc reporter destabilization hit call [6]	kinase-Nluc reporter destabilization hit call [7]	kinase-Nluc reporter destabilization hit call [8]	kinase-Nluc reporter destabilization hit call [9]	kinase-Nluc reporter destabilization hit call [10]	kinase-Nluc reporter destabilization hit call [11]	kinase-Nluc reporter destabilization hit call [12]	kinase-Nluc reporter destabilization hit call [13]	kinase-Nluc reporter destabilization hit call [14]	kinase-Nluc reporter destabilization hit call [15]	kinase-Nluc reporter destabilization hit call [16]	kinase-Nluc reporter destabilization hit call [17]	kinase-Nluc reporter destabilization hit call [18]	number of time points [19]	number of time points [20]
Cc1cc(Nc2cc3ncccc3c(N[C@@H]3C[C@H]4CC[C@@H](C3)N4CCC#N)n2)n[nH]1 [Izencitinib] (10 µM)	inactive: 0	inactive: 0	inactive: 0	inactive: 0	inactive: 0	inactive: 0	inactive: 0	inactive: 0	inactive: 0	inactive: 0	inactive: 0	inactive: 0	inactive: 0	inactive: 0	inactive: 0	inactive: 0	inactive: 0	inactive: 0	0	0
CC(C)(C)c1ccc(S(=O)(=O)Nc2ccc(-n3ccnc3)cc2)cc1 (10 µM)	inactive: 0	inactive: 0	inactive: 0	inactive: 0	inactive: 0	inactive: 0	inactive: 0	inactive: 0	inactive: 0	inactive: 0	inactive: 0	inactive: 0	inactive: 0	inactive: 0	inactive: 0	inactive: 0	inactive: 0	inactive: 0	0	0
N#Cc1c(-c2ccccc2)cc(-c2cc(Br)ccc2O)[nH]c1=O (10 µM)	inactive: 0	inactive: 0	inactive: 0	inactive: 0	inactive: 0	inactive: 0	inactive: 0	inactive: 0	inactive: 0	inactive: 0	inactive: 0	inactive: 0	inactive: 0	inactive: 0	inactive: 0	inactive: 0	inactive: 0	inactive: 0	0	0
COc1cc2c[n+](C)c3c4cc5c(cc4ccc3c2cc1OC)OCO5 [Nitidine (chloride)] (2 µM)	inactive: 0	inactive: 0	inactive: 0	inactive: 0	inactive: 0	inactive: 0	inactive: 0	inactive: 0	inactive: 0	inactive: 0	inactive: 0	inactive: 0	inactive: 0	inactive: 0	inactive: 0	inactive: 0	inactive: 0	inactive: 0	1	0
O=C(/C=C/c1ccc(O[C@@H]2O[C@H](CO)[C@@H](O)[C@H](O)[C@H]2O[C@@H]2OC[C@](O)(CO)[C@H]2O)cc1)c1ccc(O)cc1O [Isoliquiritin apioside] (10 µM)	inactive: 0	inactive: 0	inactive: 0	inactive: 0	inactive: 0	inactive: 0	inactive: 0	inactive: 0	inactive: 0	inactive: 0	inactive: 0	inactive: 0	inactive: 0	inactive: 0	inactive: 0	inactive: 0	inactive: 0	inactive: 0	0	0
Cc1cc2cc(Nc3ccnc(Nc4ccc5[nH]c(C)cc5c4)n3)ccc2[nH]1 (2.5 µM)	inactive: 0	inactive: 0	inactive: 0	inactive: 0	inactive: 0	inactive: 0	inactive: 0	inactive: 0	inactive: 0	inactive: 0	inactive: 0	inactive: 0	inactive: 0	inactive: 0	inactive: 0	inactive: 0	inactive: 0	inactive: 0	2	0
CCn1c(=O)c(-c2ccc(-c3cncc(C)n3)cc2Cl)cc2cnc(NCCC3CCN(C)CC3)nc21 (10 µM)	inactive: 0	inactive: 0	inactive: 0	inactive: 0	inactive: 0	inactive: 0	inactive: 0	inactive: 0	inactive: 0	inactive: 0	inactive: 0	inactive: 0	inactive: 0	inactive: 0	inactive: 0	inactive: 0	inactive: 0	inactive: 0	0	0
C=C(CCC=C(C)C)[C@H]1CC[C@]2(C)[C@@H]1[C@H](O)C[C@@H]1[C@@]3(C)CC[C@H](O[C@@H]4O[C@H](CO)[C@@H](O)[C@H](O)[C@H]4O[C@@H]4O[C@H](CO)[C@@H](O)[C@H](O)[C@H]4O)C(C)(C)[C@@H]3CC[C@]12C [Ginsenoside Rk1] (10 µM)	inactive: 0	inactive: 0	inactive: 0	inactive: 0	inactive: 0	inactive: 0	inactive: 0	inactive: 0	inactive: 0	inactive: 0	inactive: 0	inactive: 0	inactive: 0	inactive: 0	inactive: 0	inactive: 0	inactive: 0	inactive: 0	0	0
